According to PMC12040169 (PLOS Biology, 2025):
The list shows a part of the results.

tested on: T1, CTL2-GFP (C. trachomatis L2/434/Bu, GFP-expressing); parameters: species or system HeLa; Intracellular C. trachomatis growth in HeLa cells, bulk GFP fluorescence relative to DMSO; details: bulk GFP, single well; 28.5 h, 10 µM; inhibitor
T1 construct: L2/434/Bu, GFP-expressing

Structure (SMILES)	% of control remaining
COc1cccc(CN2CCCN(c3nccc(OCC4COc5ccccc5O4)n3)CC2)c1OC (centres unmarked) [CBK115476T]	114.83%
CN(C)C(=O)c1cccc(NC(=O)C2CCCCC2)c1 [CBK304515]	123.452%
CCN1CC2(CCN(Cc3cccc(-c4ccccn4)c3)CC2)CC1=O [CBK307399]	101.535%
CN(C)c1cccc(-c2cncc(NCCCN3CCOCC3)n2)c1 [CBK065635]	172.307%
O=C1c2ccccc2CN1c1cccc2ccccc12 [CBK113190]	104.276%
Cn1nccc1C(=O)NC(Cc1cccs1)c1nccs1 (centres unmarked) [CBK285055]	140.552%
O=C(NC1CCCC1)c1ccc(-c2cnc3[nH]c(=O)n(CCCN4CCOCC4)c3n2)cc1 [CBK064829]	104.337%
O=[N+]([O-])c1ccc(Oc2cccc3cccnc23)c(C(F)(F)F)c1 [CBK002739]	131.004%
COc1cc2[nH]c(=S)n3nc(-c4ccncc4)nc3c2cc1OC [CBK288559]	128.298%
Cc1ccc(-c2nnc(C3CCCN(C(=O)C4CC4)C3)o2)s1 (centres unmarked) [CBK285516]	141.731%
Nc1cccc(-c2nc(-c3cncnc3)cnc2N)c1 [CBK063907]	120.103%
O=C(O)C1CCCN(C(=O)NCc2ccc3c(c2)OCO3)C1 (centres unmarked) [CBK161346]	113.293%
CCCC(=O)N1CCn2c(nnc2-c2cncc(Br)c2)C1 [CBK304761]	112.116%
CS(=O)(=O)NCC1CCCCN1Cc1ccc(-n2cccn2)cc1 (centres unmarked) [CBK305587]	143.795%
COc1cccc(C(=O)N2CCN(S(=O)(=O)c3ccc([N+](=O)[O-])cc3)CC2)c1 [CBK157533]	56.6375%
Cc1csc2c(C3CCCN(C(=O)c4cccnc4)C3)nc(C)n12 (centres unmarked) [CBK283329]	126.189%
O=C(O)c1cccnc1SC1CC(=O)N(Cc2ccccc2)C1=O (centres unmarked) [CBK263375]	67.4253%
COc1ccc(C[C@@]23CC[C@H](NC(=O)NCCc4ccccc4)C[C@@H]2N(C)CC3)cc1 [CBK024127]	90.3127%
CN(C)CCNC(=O)C(=O)Nc1ccc(Cl)cc1 [CBK266965]	121.696%
CC(=O)N1CC[C@H]2NC(=O)CNC(=O)C3(CCCC[C@H]2C1)CCN(C(=O)CCn1ccnc1)CC3 [CBK292138]	81.5556%
CC(=O)Nc1cccc(-c2cnc3[nH]c(=O)n(C4CC4)c3n2)c1 [CBK064859]	152.058%
O=C(Nc1n[nH]c2ccccc12)c1ccccc1 [CBK017993]	179.309%
O=C(NCCN1CCCC1=O)Nc1ccccc1 [CBK263517]	89.0677%
CN1CCN(c2cccc(-c3cc(C(F)(F)F)cc(C(F)(F)F)c3)n2)CC1 [CBK036982]	162.046%
O=c1cc(N2CCCCC2)cnn1Cc1nccn1C1CC1 [CBK307484]	144.628%
C/C(=N\NC(=O)c1nc(-c2ccccc2)cc(-c2ccccc2)n1)c1cccnc1 [CBK262827]	108.479%
O=C(O)c1ccc(CNCCN2CCOCC2)cc1 [CBK287223]	131.753%

Looked up one by one from the list above:
Structure (SMILES)	% of control remaining
COc1ccc(C[C@@]23CC[C@H](NC(=O)NCCc4ccccc4)C[C@@H]2N(C)CC3)cc1 [CBK024127]	90.3127%
COc1cccc(CN2CCCN(c3nccc(OCC4COc5ccccc5O4)n3)CC2)c1OC (centres unmarked) [CBK115476T]	114.83%

Next part.

Structure (SMILES)	% of control remaining
Cc1noc(C)c1NC(=O)CCc1cccnc1 [CBK200392]	89.254%
CN1C(=O)COc2ccccc2C/C=C/C[C@@H]2[C@H]1CCCN2C(=O)c1cnn2cccnc12 [CBK292083]	97.3466%
CC(C)(C)SCCNS(=O)(=O)c1ccc(Cl)c(Cl)c1 [CBK057015]	125.603%
CCOC(=O)CCCNC(=O)N1CCN(c2ccccc2OC)CC1 [CBK155618]	107.343%
Cc1cccc2c3c([nH]c12)C1(CCCN(Cc2ccc(F)cc2Cl)C1)NCC3 (centres unmarked) [CBK039339]	69.6981%
O=c1[nH]c2ccccc2n1C1CCN(S(=O)(=O)c2cc(Cl)cc(Cl)c2O)CC1 [CBK149694]	120.929%
O=C(O)C(=O)c1cn(Cc2ccccc2Cl)c2ccccc12 [CBK287035]	124.721%
Oc1cccnc1N1CCN(Cc2ccccc2)CC1 [CBK045849]	119.969%
Cc1ccc(S(=O)(=O)NCC(=O)Nc2cc3ccccc3c(Br)n2)cc1 [CBK063300]	112.723%
COc1cccc(CN2C(=O)CC3(C2=O)C(=O)N(CC(=O)c2ccccc2)c2ccccc23)c1 (centres unmarked) [CBK075984]	118.8%
Cc1cc(C)cc(OC(C)C(=O)N2CCCc3c(cnn3C)C2)c1 (centres unmarked) [CBK285270]	131.575%
CC12CCCC(=O)N1C(CO)C(c1ccccc1)O2 (centres unmarked) [CBK011013]	147.038%
Cc1ccc(Cl)c(OC(C)C(=O)N2CCOC(CC(=O)O)C2)c1 (centres unmarked) [CBK304769]	113.155%
CCOC(=O)C1(Cc2ccc(F)cc2F)CCCN(C(C)=O)C1 (centres unmarked) [CBK307516]	118.072%
CCCC(N)CCCCCC(=O)O (centres unmarked) [CBK217078]	108.145%
Cn1c(Cc2cccs2)nnc1SCC(=O)c1c[nH]c2ccccc12 [CBK268534]	128.646%
COc1ccc(CCNC(=O)c2cnc3scc(C)n3c2=O)cc1 [CBK287291]	93.6599%
CCCc1c(C(=O)N2CCN(c3ncccn3)CC2)cnn1-c1cc(Cl)cc(Cl)c1 [CBK107383]	97.0004%
COc1ccc(S(=O)(=O)NC(=O)NCC2CC3C=CC2C3)cc1 (centres unmarked) [CBK022821]	116.595%
Cc1nc2ccc(NC(=S)N3CCN(c4ccccn4)CC3)cc2nc1C [CBK267227]	144.228%
OC(CN1CCOCC1)Cn1c(-c2ccccc2)c(-c2ccccc2)c2ccc3ccccc3c21 (centres unmarked) [CBK263996G]	40.5425%
Cc1nnsc1C(=O)N1CCN(c2cc(C(F)(F)F)ccn2)CC1 [CBK008467]	141.341%
CCOc1ccccc1C(=O)N1CCC(Cc2cccc(-c3cccs3)c2)(C(N)=O)CC1 [CBK285914]	113.949%
Cc1ccc(C(Cc2ccsc2)NS(=O)(=O)c2ccc3[nH]c(=O)[nH]c(=O)c3c2)nc1 (centres unmarked) [CBK286354]	121.549%
CC(C)C(=O)N1CC(C)N(CCCC(c2ccc(F)cc2)c2ccc(F)cc2)CC1C (centres unmarked) [CBK024961C]	120.031%
CC(=O)c1ccc(NC(=O)O[C@@H]2CO[C@H]3[C@@H]2OC[C@@H]3NC(=O)C2CCC2)cc1 [CBK289475]	118.111%
Cc1ccc(C(C)C(=O)N2CCC(O)(Cn3ccnc3C)CC2)cc1 (centres unmarked) [CBK284660]	131.744%

Structure (SMILES)	% of control remaining
O=C(CC1Sc2ccccc2NC1=O)Nc1ccc([N+](=O)[O-])c(F)c1 (centres unmarked) [CBK264717]	100%
CC(C)C(=O)N1CCC(OCc2ccc(-c3ccc(C(=O)N(C)C)cc3)cc2S(C)(=O)=O)CC1 [CBK155921]	94.2059%
CN1CCN(CCC(=O)N2CCN(c3ncccn3)CC2)CC1 [CBK144520]	75.5755%
CN1CCC(NC(=O)c2cc3ccccc3[nH]2)CC1 [CBK168633]	109.497%
COc1ccc(CNC(=O)c2cc(S(=O)(=O)N(C)C)ccc2OC)cc1 [CBK307586]	151.77%
Cc1nnc(CS(=O)(=O)Cc2csc(C(C)C)n2)n1C1CC1 [CBK304106]	102.796%
COCCNc1cc(-c2ccc(C(C)=O)s2)ncn1 [CBK090791]	164.916%
Cn1cnc([N+](=O)[O-])c1Sc1cccs1 [CBK002620]	52.1063%
CCCCN(Cc1ccccc1)C(=O)[C@H]1CCCC[C@H]1C(=O)O [CBK286596]	125.219%
Cn1ncc(Nc2ccccc2)c1C(=O)O [CBK013004]	84.4186%
Cc1nn(-c2ccc(F)cc2)c(C)c1C(=O)NCc1ccnc(N2CCCC2)c1 [CBK296700]	115.661%
COC(=O)CCC(=O)Nc1snnc1-c1ccc(Cl)cc1 [CBK153241]	113.033%
CC(C)(C)OC(=O)N1Cc2c(-c3noc(C4CC4)n3)ncn2-c2ccc(Cl)cc21 [CBK007792]	108.938%
CC(=O)Nc1nnn(CCOc2nonc2C)n1 [CBK027320]	151.529%
c1cc(N2CCN(CCN3CCCC3)CC2)ncc1-c1ccc2c(c1)OCO2 [CBK037769]	124.995%
CCc1cn(C[C@H](NC(=O)C2CCC2)C(=O)O)c(=O)[nH]c1=O [CBK289663]	155.114%
CCNC(=O)N1CC2(CCN(CCSC)CC2)c2ccccc21 [CBK126709]	93.8674%
COCC(=O)N(C)C(CO)c1cc(OC)ccc1Br (centres unmarked) [CBK304780]	134.88%
O=C(c1nc2ccccc2[nH]1)N1CCc2ccccc2C1 [CBK200341]	82.0422%
c1ccc(C(CCN2CCc3ccccc3C2)c2ccccc2)cc1 [CBK126404]	107.769%
O=C(CN1CCC(NC(=O)c2cccs2)CC1)Nc1cc(F)ccc1F [CBK305997]	90.4195%
C=C(C)Cn1c(Cc2ccccc2)nnc1SCC(C)C [CBK200082]	105.545%
CSCCC(=O)Nc1cccc2[nH]ccc12 [CBK159655]	110.088%
Clc1ccc2c(c1)NC(c1ccco1)N1CCN=C21 (centres unmarked) [CBK284479]	133.83%
COc1cc(NS(=O)(=O)c2cc(C(=O)O)c(Cl)cc2Cl)cc(OC)c1 [CBK113162]	113.049%
c1ccc(CSc2nnc3ccc(-c4ccncc4)nn23)cc1 [CBK287681]	106.534%

Three structures from above, sorted by SMILES length, falling.
Structure (SMILES)	% of control remaining
Cc1nn(-c2ccc(F)cc2)c(C)c1C(=O)NCc1ccnc(N2CCCC2)c1 [CBK296700]	115.661%
COCCNc1cc(-c2ccc(C(C)=O)s2)ncn1 [CBK090791]	164.916%
CSCCC(=O)Nc1cccc2[nH]ccc12 [CBK159655]	110.088%
